The structures appear in SMILES notation. This is one part of the list. The main result of the screen is listed elsewhere. These columns were measured beside it and carry no call. Compounds called inactive in the main read-out are mostly missing here. Words in brackets tell the shape of the fitted curve; partial curves, single points and poor fits give uncertain potencies.

This test is described as follows: qHTS Assay for Lipid Storage Modulators in Drosophila S3 Cells.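 As to cell number change: cells counted by Cell Tracker Red CMTPX staining in the red channel.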 To be noted: BODIPY lipid droplet fluorescence, 18-24 h; for cell number change: measured here: cell count max response, cells fed with added oleic acid. A digest of the protocol: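 Drosophila S3 cells got compounds at several concentrations plus oleic acid (400 uM solution). Laser-scanning cytometry with 488 nm excitation read lipid droplets at 500-530 nm and cells at 575-640 nm. Percent activity was relative to 20 uM Triacsin C.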

The mark [1] stands for this setting: measured here: lipid fluorescence (Fed channel) AC50, cells fed with added oleic acid.
The mark [2] stands for this setting: measured here: cell number channel AC50, cells fed with added oleic acid.

`COc1ccc(OCC(=O)NS(=O)(=O)c2ccc(Cl)cc2)cc1`: the cell number change worked out at 18.3%.
Still for that read-out and setting: the result for `COC(=O)c1cc(COC(=O)c2ccc(OC)c(S(=O)(=O)N3CCCC3)c2)oc1C` reads 8.55%.
A word on the AC50: it is the concentration at which the activity in the assay is half-maximal. A higher AC50 goes with activity only at high concentration. For the compound `O=C(Nc1ccc2c(c1)C(=O)NC2=O)c1cccc(C(F)(F)F)c1`, the cell number change was 8.38%. Under setting [1], the AC50 is 16.4 µM [rising, single point].
For `CN(C)C(=S)NC(=O)C12CC3(C)CC(C)(CC(C)(C3)C1)C2`, the cell number change is -14.4%. The AC50 under setting [1] is 2.06 µM [rising, partial curve].
Regarding `COc1ccc(N2C(=O)CSC2c2ccc([N+](=O)[O-])cc2)cc1` (centres undefined), the cell number change was determined as 17.4%. In addition, under setting [1], the AC50 is 16.4 µM [rising, single point].
As to `Cc1ccc(NC(=O)C2CCN(S(=O)(=O)c3ccc(F)cc3)CC2)cc1`, the cell number change stood at 9.81%. Also, under setting [1], the AC50 was 29.1 µM [rising, single point].
As for `Cc1ccc(NC(=O)c2c3c(nc4ccccc24)CCC3)cc1`, the cell number change is 22.2%.
For `Cc1ccc(CN(C)C(=O)COC(=O)CSc2ccc(C(N)=O)cc2[N+](=O)[O-])cc1`, the cell number change was -8.46%. Besides, the AC50 under setting [1] was 0.00461 µM [rising, full curve, poor fit].
As to `O=S(=O)(Nc1cccc(-c2ccc(N3CCCCCC3)nn2)c1)c1ccc(F)cc1`, the cell number change amounted to 26.9%.
With `COc1ccc(C)cc1N(C(=O)CNC(=O)c1ccco1)C(C(=O)NCC1CCCO1)c1ccccc1` (centres undefined), the cell number change amounted to 1.3%. Under setting [1], the AC50 is 6.51 µM [falling, single point].
For the compound `CCOC(=O)c1cnc(SC)nc1Oc1cccc(NS(=O)(=O)c2ccc(C)cc2)c1`, the cell number change stood at 25.6%. Moreover, under setting [1], the AC50 was 0.517 µM [rising, full curve].
Consider `CCCCNC(=O)c1onc(CCl)c1C(=O)OC`, for which the cell number change is 19.5%. The AC50 under setting [1] was 5.8 µM [rising, full curve, poor fit].
Turning to `C=CCn1c(C)cc(C(=O)COC(=O)/C=C/c2ccc(OC)cc2)c1C`, the cell number change amounted to 108%. Besides, the AC50 under setting [2] is 11.6 µM [rising, partial curve]. Moreover, under setting [1], the AC50 is 13 µM [rising, partial curve].
For the compound `CCOC(=O)c1nsnc1NCCSC(=N)N`, the cell number change was -11.1%. Moreover, the AC50 under setting [2] is 0.0731 µM [falling, full curve, poor fit].
For `Cc1ccc(C)c(S(=O)(=O)N2CCCCC2CCNC(=O)C(=O)NCc2cccnc2)c1` (centres undefined), the cell number change was 24.3%.
As to `CCOC(=O)c1cc(C(=O)OCC)c(=O)[nH]c1N1CCCC1`, the cell number change is -7.01%.
For `O=C(Cn1cnc2ccccc2c1=O)c1cccs1`, the cell number change stood at 7.06%. The AC50 under setting [1] was 29.1 µM [rising, single point].
With `COc1ccc(OCCCNCCc2ccccc2)cc1`, the cell number change was 89.5%. In addition, the AC50 under setting [2] is 4.61 µM [falling, partial curve]. Moreover, the AC50 under setting [1] is 4.61 µM [falling, partial curve].
In the case of `CC(C)NC(=O)C1CCN(C2CCN(Cc3cn[nH]c3-c3ccccc3)CC2)CC1`, the cell number change turned out to be 16%. Also, the AC50 under setting [2] is 2.91 µM [falling, single point]. Besides, the AC50 under setting [1] is 5.8 µM [falling, single point].
Regarding `CC1CCCC(C)N1C(=O)COC(=O)c1c[nH]c2ccccc12` (centres undefined), the cell number change is -10%. In addition, the AC50 under setting [1] is 0.164 µM [falling, full curve].
As to `COCc1nc(-c2cc(Br)ccc2OC)no1`, the cell number change turned out to be 84.3%. Further, the AC50 under setting [2] is 20.6 µM [rising, partial curve]. For the same compound, the AC50 under setting [1] was 2.59 µM [rising, partial curve].
Take `O=C(COC(=O)Cc1ccc(Br)cc1)NC1CC1`: the cell number change is -5.29%. Further, the AC50 under setting [2] was 2.91 µM [falling, single point]. The AC50 under setting [1] is 23.1 µM [rising, partial curve, poor fit].
For `CCN(Cc1ccncc1)C(=O)c1ccco1`, the cell number change was -8.84%.
With `CCCCn1c(CNC(C)=O)nc2ccccc21`, the cell number change was -120%. The AC50 under setting [2] was 25.9 µM [falling, partial curve]. For the same compound, the AC50 under setting [1] is 20.6 µM [falling, partial curve].
With `CCOc1ccc(C(=O)Nc2cccc(-n3cnnn3)c2)cc1OCC`, the cell number change was -21.4%.
Regarding `Oc1c(C(c2ccccn2)N2CCC(Cc3ccccc3)CC2)cc(Cl)c2cccnc12` (centres undefined), the cell number change was -73.5%. Moreover, the AC50 under setting [2] is 20.6 µM [falling, single point]. Moreover, the AC50 under setting [1] is 18.4 µM [falling, single point].
For `CCOC(=O)c1ccc(N/N=C/c2cc(Br)cc([N+](=O)[O-])c2O)cc1`, the cell number change was -9.56%. Further, the AC50 under setting [1] was 20.6 µM [falling, single point].
In the case of `CC(=O)c1cccc(NC=C2C(=O)OC3(CCCCC3)OC2=O)c1`, the cell number change amounted to 27.3%. Besides, under setting [1], the half-maximal activity concentration (AC50) is 32.6 µM [rising, single point].
With `CCOc1ccc(CCNC(=O)COC(=O)c2ccco2)cc1OCC`, the cell number change is -64.9%. Besides, the AC50 under setting [2] was 18.4 µM [falling, single point]. Further, the AC50 under setting [1] was 29.1 µM [falling, single point].
In the case of `COc1ccc(NC(=O)CN(C)C(=O)CN2C(=O)NC3(CCCC3)C2=O)cc1`, the cell number change is -16.5%.
Take `O=C(Nc1nc2ccsc2c(=O)s1)C1CCC1`: the cell number change is 18.6%. Besides, the AC50 under setting [1] was 29.1 µM [rising, single point].
As for `CCOC(=O)c1cccc(NC(=O)Cn2c(CC(=O)NC)nc3ccccc32)c1`, the cell number change was found to be 7.31%. In addition, the AC50 under setting [2] is 1.64 µM [rising, partial curve].
In the case of `Cc1ccc(C)c(C(=O)COc2ccc(C)nc2[N+](=O)[O-])c1`, under setting [1], the AC50 was 3.66 µM [rising, full curve].
Regarding `Cc1ccc(-n2nc3c(c2NC(=O)c2ccc(S(=O)(=O)N4CCOCC4)cc2)CSC3)c(C)c1`, the cell number change stood at 153%. For the same compound, the AC50 under setting [2] is 16.4 µM [rising, partial curve]. Also, the AC50 under setting [1] was 4.11 µM [falling, partial curve].
On to `COCCNCCOCCOc1ccc(Cl)c(C)c1`, for which the cell number change is -38%. Also, under setting [2], the AC50 was 0.058 µM [falling, full curve, poor fit]. In addition, the AC50 under setting [1] was 23.1 µM [falling, partial curve].
Turning to `O=C(NC(=S)NCc1ccccc1)c1cccc([N+](=O)[O-])c1`, the cell number change was found to be 8.45%. Further, the AC50 under setting [1] is 18.4 µM [falling, single point].
Take `CC(=O)c1sc2nc(C)c3c(c2c1N)CCCC3`: the cell number change came to 5.96%. The AC50 under setting [1] was 3.26 µM [rising, partial curve, poor fit].
In the case of `COc1ccccc1C(=O)Nc1ccc(NC(=O)c2ccco2)cn1`, the cell number change was -2.63%. Moreover, under setting [1], the AC50 is 0.501 µM [rising, single point].
Take `O=C(O)c1ccccc1OC(=O)C12CC3CC(CC(C3)C1)C2`: the cell number change was 11%. In addition, under setting [1], the AC50 is 4.11 µM [rising, single point].
On to `O=C(NC(=S)NCCc1ccccn1)c1ccco1`, for which the AC50 under setting [2] is 0.058 µM [falling, full curve].
On to `Cc1ccc(NC(=O)c2cccnc2C(=O)O)nc1`, for which the cell number change worked out at 11.7%.
With `COc1ccc(N(C(=O)c2snc(C(N)=O)c2N)C(C(=O)NCc2ccc(F)cc2)c2ccc(C)o2)c(OC)c1` (centres undefined), the cell number change was 18.5%. Further, the AC50 under setting [2] was 1.64 µM [rising, partial curve, poor fit]. Further, the half-maximal activity concentration (AC50) under setting [1] was 6.51 µM [rising, single point].
With `CCOC(CNC(=O)c1ccc2c(c1)ncn2-c1ccccc1OC)OCC`, the cell number change was determined as 20.2%. Besides, the AC50 under setting [1] is 9.2 µM [rising, partial curve].
Take `Cc1cccc(-c2noc(CNC(=O)c3ccc4c(c3)OCO4)n2)c1`: the cell number change was -6.25%.
For the compound `COc1ccc(OCCCC(=O)Nc2ccc(OC)c(S(=O)(=O)N3CCOCC3)c2)cc1`, the cell number change worked out at 28.8%. In addition, under setting [1], the AC50 is 29.1 µM [rising, single point].
For the compound `COc1ccccc1C(=O)Nc1ccon1`, the AC50 under setting [1] was 6.51 µM [rising, single point].
Regarding `COc1ccc(CCNC(=O)c2ccc(N3CCCC3=O)cc2)cc1`, the cell number change stood at 44%. The AC50 under setting [2] is 29.1 µM [rising, single point]. The AC50 under setting [1] is 29.1 µM [rising, single point].
Take `O=C(CCCCCN1C(=O)c2ccccc2C1=O)NCc1ccccn1`: the cell number change is -23%. For the same compound, under setting [1], the AC50 is 0.082 µM [falling, full curve, poor fit].
As for `COc1nc(NCC(C)C)nc(Oc2ccc(OCc3ccccc3)nn2)n1`, the cell number change is -2.02%. Also, the AC50 under setting [1] is 2.91 µM [rising, single point].
Take `Cc1ccc(S(=O)(=O)NC23CC4CC(CC(C4)C2)C3)cc1`: the cell number change is -30.3%. Under setting [2], the AC50 was 18.4 µM [falling, single point].
For the compound `O=C(COC(=O)Cc1ccccc1[N+](=O)[O-])Nc1nnc(-c2ccccc2)o1`, the cell number change was 15.3%.
Take `N#CC(C(=O)Nc1cccc(Cl)c1)=C1Nc2ccccc2N1`: under setting [1], the concentration at half-maximal activity (AC50) is 2.06 µM [rising, full curve, poor fit].
As to `COc1ccc(C/C(C)=N/NC(=S)Nc2ccccc2F)cc1`, the cell number change amounted to 38.8%.
As to `CCC(C)[C@H](NC(=O)Nc1ccc(Oc2ccccc2)cc1)C(=O)O` (some centres undefined), the cell number change is -4.75%. Also, under setting [1], the AC50 is 1.84 µM [rising, partial curve, poor fit].
As to `CC1(C)NC(=O)N(CCCCOc2cccc(C(F)(F)F)c2)C1=O`, the cell number change was -21.3%.
For `CC(C)C[C@H](NC(=O)c1nc[nH]c1C(=O)NCc1ccc(CNC(=O)OC(C)(C)C)cc1)C(=O)OC(C)(C)C`, the cell number change was found to be 44%. For the same compound, the AC50 under setting [2] was 0.82 µM [rising, partial curve]. Moreover, under setting [1], the AC50 is 14.6 µM [falling, partial curve].
As to `O=C(Cc1ccc(Br)cc1)N1CCN(c2ccc(F)cc2)CC1`, the cell number change is -4.49%. Moreover, the AC50 under setting [1] was 0.0731 µM [rising, full curve].
For the compound `Cc1ccccc1-n1nnnc1SCc1ncc(-c2ccccc2)o1`, the cell number change is 9.8%. In addition, the AC50 under setting [2] was 0.92 µM [rising, full curve]. Under setting [1], the AC50 was 0.82 µM [rising, full curve, poor fit].
On to `CC(=O)c1c(C)[nH]c(C(=O)Nc2cccc(C)n2)c1C`, for which the cell number change was -46%. The AC50 under setting [2] was 18.4 µM [falling, partial curve]. In addition, the AC50 under setting [1] is 0.366 µM [falling, partial curve].
`O=C(COC(=O)/C=C/c1ccccc1)NNC(=O)c1ccccc1F`: the cell number change came to 2.01%.
In the case of `CCc1cccc(C)c1NC(=O)CCCn1c(=O)c2cccn2c2cccnc21`, the cell number change is -8.26%. For the same compound, the AC50 under setting [1] was 0.731 µM [rising, single point].
For the compound `CCOC(=O)CSc1c(-c2cccs2)[nH]c2ccccc12`, the AC50 under setting [1] is 29.1 µM [falling, single point].

The record behind these values is PubChem BioAssay AID2685 (National Center for Advancing Translational Sciences (NCATS), 2010).
